We go through 2 molecules from paper PMC3236736, “Jamb and Jamc Are Essential for Vertebrate Myocyte Fusion” (PLoS Biology, 2011).

In experiment [1] the target is Jamb extracellular domain fused to rat Cd4 domains 3 and 4 (Jamb-Cd4d3+4-6H; Jamb-Cd4d3+4-bio) (zebrafish). The experiment can be described thus: SPR; dissociation phase averaged over three concentrations of purified Jamc-Cd4d3+4-6H or Jamb-Cd4d3+4-6H analyte, fitted to a first-order decay; homophilic and heterophilic interactions; both purified. (In general: Surface plasmon resonance follows binding to a sensor surface in real time, without labels.)

Experiment [2] addresses Jamc extracellular domain fused to rat Cd4 domains 3 and 4 (Jamc-Cd4d3+4-6H; Jamc-Cd4d3+4-bio) (zebrafish) (UniProt A3KPA0). Described as above.

These are yes or no findings as the source states them, for the method shown. Some binding calls cover weakened binding; strength is not graded here. Sequences can lack the tags named with a protein.

B1: Jamb extracellular domain fused to rat Cd4 domains 3 and 4 (Jamb-Cd4d3+4-6H; Jamb-Cd4d3+4-bio) (domain or fragment, zebrafish, UniProt A0A0R4IGV4 19-226, looked up)
chain: VTVSSRNPKVEVHEFSDAELSCEFKTEKDTNPRIEWKRKDKEKDVSFVYYGERFVGPFQDRADIEGATVRLRRVTQADAGEYRCEVSAPSDSISLGETNVTLRVLVPPQTPSCDVPSSALTGSQVELRCRDRHSIPPAVYTWYKDNRALPIRHPNATYTVNEFTGVLIPQSHYNPGTVCQHCMYHPNYHIPNTQLTTTFQTHDLNVAA
notes: Jamb (official symbol jam2a), zebrafish, Entrez Gene 100005261; Two forms with the same ectodomain were made; They are written as one molecule because the protein stood against itself in the homophilic test; also called Jam2a; zebrafish JAM-B orthologue; source: expressed as a soluble fusion protein, purified; not shown: rat Cd4 domains 3 and 4, C-terminal, kept; His6, C-terminal, kept
Take B1: the binding entry in experiment [1] was “binds weakly”.

B2: Jamc extracellular domain fused to rat Cd4 domains 3 and 4 (Jamc-Cd4d3+4-6H; Jamc-Cd4d3+4-bio) (domain or fragment, zebrafish, UniProt A3KPA0 24-235, looked up)
chain: VLLKSTNSKPWVNEFESIELSCMIESITTTKPRIEWKKIKNGDPSYVYFDNQISGDLERRAKIREPATLVILNATRSDSADYRCEVTAPNDQKSFDEILISLTVRVKPVVPRCSVPKSIPVGKPAELHCLEDEGYPKSQYQWFRNKEEIPLDPKSSPKFFNSTYTLDGEMGTLKFSAVRKEDAGEYYCRAKNEAGISECGPQMMEVYDINIA
notes: Jamc (official symbol jam3b), zebrafish, Entrez Gene 569217; Two forms with the same ectodomain were made; They are written as one molecule because the protein stood against itself in the homophilic test; also called Jam3b; zebrafish JAM-C orthologue; source: expressed as a soluble fusion protein, purified; not shown: rat Cd4 domains 3 and 4, C-terminal, kept; His6, C-terminal, kept
For B2, the binding entry in experiment [2] is reported as “binds weakly”.
